Source: the supplement of paper PMC12764529
± gives the half width of the 95% confidence interval. For many entries, trypsin and chymotrypsin gave values far apart.

Tests used:
[1] = folding stability dG unfold from trypsin proteolysis; higher = more stable
Summary of the method: (§1)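 K50 was inferred by Bayesian fitting of sequencing counts obtained after protease digestion of designed mini-proteins. Unfolding free energy was derived by comparison with a sequence-predicted unfolded-state K50 and a shared folded-state K50, for each protease or both combined. The mini-proteins were under 80 residues, had no cysteine, were carried in a PA-tagged cDNA display construct, and were kept only if AlphaFold2 dimer inter-PAE exceeded 15.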

[2] = folding stability dG unfold from chymotrypsin proteolysis; higher = more stable
Summary of the method: as §1

[3] = folding stability dG unfold (combined trypsin and chymotrypsin); higher = more stable
Summary of the method: as §1

| Sequence | folding stability dG unfold [1] [kcal/mol] | folding stability dG unfold [2] [kcal/mol] | folding stability dG unfold [3] [kcal/mol] |
| --- | --- | --- | --- |
| SAGGSAGGSAGKIEAFPGKNTVLLKISIPRRDPNSDSIYTLHAVIPATPEQAKKFLELGISAGGSAGGSAGG [r11_389_TrMRF] | 0.89 ± 0.041 | 0.899 ± 0.14 | 0.97 ± 0.1 |
| SPAVSKTYPVVEPGDGVTVRVDISYNPETGKYTATITFYPRTPGGSAEAPATVTKDFASLEEVKAWIEELAS [r1_288_JUSTAS] | 1.41 ± 0.11 | 4.09 ± 0.1 | 3.74 ± 0.15 |
| SAGAGLSAEEIAARLAALAKPGQTLTVTIRDAATGETLTLTVRVPAPPPPAPTTTRTETRTTTTTTTTSAGG [r19_0_TrROS_Hall] | -0.087 ± 0.12 | 1.98 ± 0.034 | 1.51 ± 0.052 |
| GMSATIVATLPDGSLITVDYRQLPDGSWRATVTIHRPGKAPTTLTFDFSSIEELEAYLREKFPTDITRTEAS [r1_137_JUSTAS] | 2.62 ± 0.067 | 5.39 ± 0.12 | 5.14 ± 0.11 |
| SAGGSAGGMHINAPGSIEELEEKLGGPIAEATLEGPGTFTLTLENGVPITVSFDDPEQLEELIESAGGSAGG [r6_13_TrMRF] | 0.524 ± 0.059 | 0.243 ± 0.16 | 0.387 ± 0.18 |
| SAGGWWMITVKIEFPGNGKPIEIMVFIDDDPEKAEEKVREIAEFLGFPGVKVEVEIIPIDPGDPAFKKSAGG [r13_682_TrROS] | 1.69 ± 0.057 | 4.4 ± 0.11 | 3.95 ± 0.29 |
| SAGGSDVSSLPSVVETQTTVTLPGGEKVPVTVKTFPEDSYTVETSPEGFERVTTADGVLVSLEKKSSAGGSA [r2_68_JUSTAS] | -0.967 ± 0.23 | 1.3 ± 0.024 | 0.784 ± 0.067 |
| SAGGSMKFKIKKIEVKVEKVTVTNENGEKKEFLKVEVKIEVEEEELSEEEKKKLEEEAEKLAKELASAGGSA [r2_40_TrROS_Hall] | 1.24 ± 0.18 | 3.26 ± 0.14 | 2.61 ± 0.29 |
| SAGGSAGGMVVERKDMDPEEAVEDTKKRIKEETGWEVTEITVTEFPEEPRLVVTIKVKKPPEKSSAGGSAGG [r6_462_JUSTAS] | -0.287 ± 0.11 | 0.71 ± 0.016 | 0.408 ± 0.098 |
| SAGGSAGGSMVYKVTVYIPESGETREFVDPGSEEEIKARVKELFPDPNVKVEITPIEASPELLSAGGSAGGS [r12_92_JUSTAS] | 2.11 ± 0.042 | 1.51 ± 0.051 | 1.82 ± 0.045 |
| SMGPDEPKLLGEIEIPFPNGKLRVKVYKTEGDKYLIVVETEDSVIPHYVEVKSPEEAEKYAEELIKKLGKSA [r9_758_TrMRF] | 2.05 ± 0.13 | 4.29 ± 0.12 | 3.82 ± 0.097 |
| SAMTIEIVVESKEEAEEAIRKLAEELGLEVEEIKVEVVEKKVTVTKKDGKKIEKKVLVVKVEIKLKPKESAG [r14_773_TrROS_Hall] | 0.34 ± 0.31 | 3.81 ± 0.82 | 2.83 ± 0.5 |
| SAGGGKTVEVTIEVPGENAVVYIKVYDKDKPISVFPAEFIPPTGTATFTIDVPEDAEITAEVALPEEASAGG [r13_977_TrMRF] | 0.106 ± 0.033 | 0.904 ± 0.14 | 0.687 ± 0.091 |
| SAGEIIIVDSPEEAKKLAEEKGYKVVIVYDKKTKKVTIYIYKDGKLVKKFEIDLNNPEIKELLKKLGIESAG [r5_458_TrROS_Hall] | 1.89 ± 0.086 | 4.88 ± 0.26 | 4.67 ± 0.58 |
| SAGGSAGGSAGGKISENALPGQTVTWEWYIMIMTMKRNPNGEREMEMHWIPVEFTVKVPSAGGSAGGSAGGS [r10_1135_TrROS] | 2.09 ± 0.075 | 4.12 ± 0.14 | 3.46 ± 0.3 |
| STLTVEEIEELRKLGFELIEVTEDGRYRFYNKETKEVIEVEVKPVPPPKKIELPEEVKSKEEREKLLEELSA [r9_649_TrROS_Hall] | 1.51 ± 0.08 | 3.96 ± 0.18 | 3.66 ± 0.39 |
| SAGGSAGGSKPETIEIEITIKNEDGSEYKIKATLIEVNGELYLRIEIKNKETNETFEFIFKLPSAGGSAGGS [r12_864_TrROS_Hall] | 1.85 ± 0.12 | 4.87 ± 0.43 | 4.49 ± 0.5 |
| SSSTVTVTVTFPDGTVVTVDFTGSLAEVEAAVREWVRQYAAEQGLDPREVRVTITFADDGTTRERTLPLRSA [r9_1193_JUSTAS] | 0.921 ± 0.043 | 2.42 ± 0.035 | 2.04 ± 0.086 |
| SAGGSAGGKAEKITLEIPNTGKKVEIIKPENKAIITVYDKNGKPIKTIVVPPNFPGIEDAVKADSAGGSAGG [r6_424_TrMRF] | -0.267 ± 0.068 | 0.773 ± 0.061 | 0.434 ± 0.12 |
| SAGGSAKELTAEELAKKIAEKLKELYPNVEVKVEVKKKKDGTIVVTIYVRDKKTGEWKKIKEITLKSAGGSA [r15_682_TrROS_Hall] | 2.17 ± 0.24 | 4.59 ± 0.28 | 4.68 ± 0.94 |
| SAGGMTIFLPLENKEEVIEKLKKEGYKPVEVKEEGDVVTIKVEKKKDEKKEEITIVFYPPSKPEEPVSAGGS [r8_307_JUSTAS] | 2.77 ± 0.14 | 2.59 ± 0.085 | 2.68 ± 0.1 |

Another view of part of the listing above.
Sequence,folding stability dG unfold [1] [kcal/mol],folding stability dG unfold [2] [kcal/mol],folding stability dG unfold [3] [kcal/mol]
SMGPDEPKLLGEIEIPFPNGKLRVKVYKTEGDKYLIVVETEDSVIPHYVEVKSPEEAEKYAEELIKKLGKSA [r9_758_TrMRF],2.05 ± 0.13,4.29 ± 0.12,3.82 ± 0.097
SAMTIEIVVESKEEAEEAIRKLAEELGLEVEEIKVEVVEKKVTVTKKDGKKIEKKVLVVKVEIKLKPKESAG [r14_773_TrROS_Hall],0.34 ± 0.31,3.81 ± 0.82,2.83 ± 0.5
